From PMC12198385
Results are given in words; binding and its absence hold for the method and conditions named. Binding seen in cells or lysates may run through a third protein. Some results given as binding are weak or reduced against the parent protein; the word gives no strength.

Sequences of proteins named here, by UniProt entry; tags and fusion partners are left off.
UniProt Q61188: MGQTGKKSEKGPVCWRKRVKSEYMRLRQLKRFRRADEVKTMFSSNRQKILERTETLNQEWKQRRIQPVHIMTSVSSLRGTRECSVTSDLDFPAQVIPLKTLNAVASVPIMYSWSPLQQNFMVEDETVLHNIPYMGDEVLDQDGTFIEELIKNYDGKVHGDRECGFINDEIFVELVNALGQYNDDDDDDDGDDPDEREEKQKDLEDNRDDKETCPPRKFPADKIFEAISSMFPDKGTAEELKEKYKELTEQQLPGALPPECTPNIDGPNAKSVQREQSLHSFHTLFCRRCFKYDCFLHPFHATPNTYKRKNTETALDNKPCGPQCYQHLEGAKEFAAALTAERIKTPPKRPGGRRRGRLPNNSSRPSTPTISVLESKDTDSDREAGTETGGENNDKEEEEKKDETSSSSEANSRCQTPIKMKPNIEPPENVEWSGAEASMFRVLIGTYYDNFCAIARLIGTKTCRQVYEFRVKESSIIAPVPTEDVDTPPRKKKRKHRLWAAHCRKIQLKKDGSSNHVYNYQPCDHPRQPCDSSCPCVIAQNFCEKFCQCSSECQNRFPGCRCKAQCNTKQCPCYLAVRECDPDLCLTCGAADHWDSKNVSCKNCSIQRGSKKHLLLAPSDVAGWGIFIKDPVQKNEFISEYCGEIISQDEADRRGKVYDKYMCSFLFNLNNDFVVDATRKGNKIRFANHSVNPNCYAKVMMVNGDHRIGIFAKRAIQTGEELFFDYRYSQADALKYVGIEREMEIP

Molecular target: T1, human IκBζ (human) (UniProt Q9BYH8)
T1 sequence: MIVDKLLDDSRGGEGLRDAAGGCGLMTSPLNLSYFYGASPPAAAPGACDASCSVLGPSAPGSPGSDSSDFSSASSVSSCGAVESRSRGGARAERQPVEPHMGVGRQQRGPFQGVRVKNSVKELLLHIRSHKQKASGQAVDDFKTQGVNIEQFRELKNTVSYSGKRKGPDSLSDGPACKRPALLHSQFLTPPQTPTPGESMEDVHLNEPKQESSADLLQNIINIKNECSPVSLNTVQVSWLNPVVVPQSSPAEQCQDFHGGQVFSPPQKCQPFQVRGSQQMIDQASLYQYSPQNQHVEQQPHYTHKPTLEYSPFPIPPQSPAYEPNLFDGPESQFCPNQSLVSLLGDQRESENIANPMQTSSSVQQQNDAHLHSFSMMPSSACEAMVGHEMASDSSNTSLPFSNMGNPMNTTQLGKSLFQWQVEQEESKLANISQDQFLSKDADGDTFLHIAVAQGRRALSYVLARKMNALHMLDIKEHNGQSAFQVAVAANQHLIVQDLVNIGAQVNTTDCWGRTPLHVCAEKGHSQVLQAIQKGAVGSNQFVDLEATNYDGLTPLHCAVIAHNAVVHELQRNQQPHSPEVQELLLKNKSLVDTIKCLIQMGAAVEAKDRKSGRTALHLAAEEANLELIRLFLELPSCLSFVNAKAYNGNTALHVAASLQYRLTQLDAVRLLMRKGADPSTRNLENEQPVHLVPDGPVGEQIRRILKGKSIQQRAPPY
Test: co-IP; IκBζ precipitated with an anti-IκBζ antibody from pre-cleared lysates (overnight, 4 °C, protein A/G PLUS agarose) of control and IκBζ-overexpressing B16-F10 cells; immunoblot with HDAC3 or EZH2 antibody

binding: binds
Substance: EZH2 (from UniProt Q61188 1-746)
